PubChem BioAssay AID493246 | Drosophila RNAi Screening Center, 2011
Screen: 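Identify essential fly genes by loss of cell viability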 (primary screen). Cell system: Drosophila Kc and S2R+ cells. Reagent: long dsRNA against Drosophila genes. Read-out: 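Raw, unnormalised count of remaining cells in each well; per-plate z-scores of cell number underlie the calls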. Scale: Kc cell number and S2R+ cell number: higher = more cells remaining. Hit rule: 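Counted as a hit if cell number falls by a z-score of at least 3 within its plate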.
The deposit covers about 21,000 reagents; shown is a random part of those with a known target gene and a result. In the full data, 429 (2%) are marked active. 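Values are raw and not normalised between plates; calls rest on per-plate z-scores that were not deposited.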 Names joined by + are all predicted targets of the reagent. Reagent sequences are not shown. Not stated in the record: the amount of reagent, the time to read-out.

no.	Target gene	DRSC id	Kc cell number, rep 1	Kc cell number, rep 2	S2R+ cell number, rep 1	S2R+ cell number, rep 2	Outcome
1	Bka (GeneID 46032)	DRSC02757	1.65e6	1.62e6	1.27e6	1.42e6	inactive
2	sub (GeneID 44870)	DRSC06125	1.35e6	1.48e6	1.16e6	1.11e6	inactive
3	hoka (GeneID 38588)	DRSC08313	1.48e6	1.58e6	1.15e6	1.21e6	inactive
4	eIF3f2 (GeneID 35547)	DRSC04903	1.64e6	1.81e6	1.46e6	1.54e6	inactive
5	CG2113 (GeneID 38356)	DRSC08554	1.22e6	1.34e6	1.08e6	1.24e6	inactive
6	HBS1 (GeneID 117365)	DRSC08544	1.57e6	1.61e6	1.21e6	1.15e6	inactive
7	CG8850 (GeneID 36331)	DRSC07287	1.59e6	1.55e6	1.18e6	1.33e6	inactive
8	gcl (GeneID 35864)	DRSC07623	1.55e6	1.56e6	1.14e6	1.16e6	inactive
9	CycD (GeneID 32551)	DRSC20233	1.42e6	1.45e6	6.29e5	7.18e5	active
10	Ndae1 (GeneID 34005)	DRSC00975	1.53e6	1.64e6	9.84e5	1.12e6	inactive
11	Ndae1 (GeneID 34005)	DRSC02770	1.30e6	1.28e6	6.65e5	1.03e6	inactive
12	CG8563 (GeneID 38826)	DRSC10996	1.31e6	1.40e6	1.09e6	1.16e6	inactive
13	tub (GeneID 40554)	DRSC12389	1.64e6	1.84e6	9.73e5	1.19e6	inactive
14	crok (GeneID 34646)	DRSC02593	1.60e6	1.65e6	1.32e6	1.43e6	inactive
15	Tbc1d8-9 (GeneID 40361)	DRSC11820	1.59e6	1.55e6	1.46e6	1.46e6	inactive
16	Tpc1 (GeneID 41316)	DRSC15614	1.73e6	1.79e6	1.26e6	1.37e6	inactive
17	Tpc1 (GeneID 41316)	DRSC16074	1.55e6	1.62e6	1.31e6	1.43e6	inactive
18	CG8202 (GeneID 41043)	DRSC16396	1.33e6	1.37e6	1.29e6	1.39e6	inactive
19	JIL-1 (GeneID 39241)	DRSC11200	1.57e6	1.61e6	1.27e6	1.18e6	inactive
20	CG6938 (GeneID 39362)	DRSC10752	1.51e6	1.75e6	1.29e6	1.39e6	inactive
21	cola + swif	DRSC06826	1.42e6	1.61e6	1.29e6	1.41e6	inactive
22	Obp47a (GeneID 36162)	DRSC06255	1.78e6	1.68e6	1.33e6	1.55e6	inactive
23	CG31195 (GeneID 46155)	DRSC13440	1.37e6	1.37e6	1.03e6	1.12e6	inactive
24	CG2767 (GeneID 40946)	DRSC15451	1.56e6	1.70e6	1.14e6	1.23e6	inactive
25	lectin-37Da (GeneID 3346222)	DRSC03278	1.30e6	1.30e6	1.02e6	1.17e6	inactive
26	Ude (GeneID 42953)	DRSC15324	1.55e6	1.59e6	1.17e6	1.24e6	inactive
27	kcc (GeneID 37800)	DRSC04316	1.37e6	1.43e6	1.05e6	1.10e6	inactive
28	kcc (GeneID 37800)	DRSC04516	1.61e6	1.68e6	1.26e6	1.38e6	inactive
29	CG10939 (GeneID 44155)	DRSC06019	1.20e6	1.34e6	8.69e5	8.63e5	inactive
30	CG5687 (GeneID 38255)	DRSC08568	1.44e6	1.48e6	1.14e6	1.10e6	inactive
31	LPCAT (GeneID 31899)	DRSC18157	1.75e6	1.79e6	1.07e6	1.30e6	inactive
32	LPCAT (GeneID 31899)	DRSC18257	1.74e6	1.58e6	1.06e6	1.13e6	inactive
33	Ku80 (GeneID 34930)	DRSC02699	1.58e6	1.60e6	1.32e6	1.47e6	inactive
34	CG7896 (GeneID 43552)	DRSC16335	5.01e5		8.72e5		inactive
35	Pc (GeneID 40358)	DRSC11873	1.46e6	1.57e6	1.13e6	1.25e6	inactive
36	CG6380 (GeneID 35040)	DRSC02950	1.54e6	1.61e6	1.19e6	1.30e6	inactive
37	Teh2 (GeneID 38502)	DRSC08458	1.39e6	1.34e6	1.11e6	1.29e6	inactive
38	Jon66Ci (GeneID 38952)	DRSC10772	1.40e6	1.42e6	1.14e6	1.17e6	inactive

3 entries already listed, sorted by “Kc cell number, rep 2”, low to high.
Target gene	DRSC id	Kc cell number, rep 1	Kc cell number, rep 2	S2R+ cell number, rep 1	S2R+ cell number, rep 2	Outcome
Ndae1 (GeneID 34005)	DRSC02770	1.30e6	1.28e6	6.65e5	1.03e6	inactive
CycD (GeneID 32551)	DRSC20233	1.42e6	1.45e6	6.29e5	7.18e5	active
Ndae1 (GeneID 34005)	DRSC00975	1.53e6	1.64e6	9.84e5	1.12e6	inactive

Additional results follow.
no.	Target gene	DRSC id	Kc cell number, rep 1	Kc cell number, rep 2	S2R+ cell number, rep 1	S2R+ cell number, rep 2	Outcome
39	CG31883 (GeneID 326169)	DRSC02561	1.45e6	1.45e6	1.08e6	1.10e6	inactive
40	CG3906 (GeneID 37721)	DRSC04431	1.52e6	1.54e6	1.14e6	1.23e6	inactive
41	CG13461 (GeneID 39635)	DRSC10008	1.44e6	1.43e6	1.25e6	1.33e6	inactive
42	Pglym87 (GeneID 46246)	DRSC15252	1.54e6	1.56e6	1.19e6	1.25e6	inactive
43	CG31482 (GeneID 40806)	DRSC12582	1.60e6	1.72e6	1.33e6	1.48e6	inactive
44	dpr20 (GeneID 38101)	DRSC08265	1.36e6	1.38e6	1.06e6	1.08e6	inactive
45	CheB42c (GeneID 2768715)	DRSC04972	1.54e6	1.61e6	1.28e6	1.38e6	inactive
46	CG33181 (GeneID 318916)	DRSC17971	1.63e6	1.62e6	1.07e6	1.22e6	inactive
47	CG8833 (GeneID 39535)	DRSC11050	1.50e6	1.65e6	1.32e6	1.33e6	inactive
48	CG15312 (GeneID 31940)	DRSC18000	5.57e5		9.02e5		inactive
49	Vha14-2 (GeneID 40748)	DRSC12145	1.39e6	1.39e6	1.35e6	1.44e6	inactive
50	CG10345 (GeneID 42017)	DRSC14138	1.53e6	1.64e6	1.16e6	1.23e6	inactive
51	CG5011 (GeneID 50196)	DRSC00039	1.50e6	1.51e6	9.63e5	1.09e6	inactive
52	CG5011 (GeneID 50196)	DRSC00674	1.42e6	1.48e6	1.21e6	1.23e6	inactive
53	ItgaPS5 (GeneID 37732)	DRSC04501	1.70e6	1.80e6	1.22e6	1.30e6	inactive
54	MED23 + CG3700	DRSC04406	1.45e6	1.56e6	1.36e6	1.47e6	inactive
55	MED23 + CG3700	DRSC04407	1.21e6	1.31e6	1.14e6	1.16e6	inactive
56	Obp56h (GeneID 37271)	DRSC06433	1.59e6	1.64e6	1.07e6	1.20e6	inactive
57	Kdm4B (GeneID 318918)	DRSC06862	1.29e6	1.37e6	1.05e6	1.09e6	inactive
58	zld (GeneID 32994)	DRSC19486	1.50e6	1.49e6	9.55e5	1.06e6	inactive
59	dpn (GeneID 35800)	DRSC07605	1.51e6	1.57e6	1.22e6	1.36e6	inactive
60	CG14826 (GeneID 38791)	DRSC10197	1.59e6	1.53e6	1.21e6	1.17e6	inactive
61	Tim8 (GeneID 32081)	DRSC20291	1.54e6	1.54e6	1.05e6	1.15e6	inactive
62	DCAF12 (GeneID 41460)	DRSC15475	1.44e6	1.52e6	1.18e6	1.28e6	inactive
63	CG14380 (GeneID 41621)	DRSC14840	1.37e6	1.41e6	1.05e6	1.15e6	inactive
64	CG30379 (GeneID 246578)	DRSC05070	1.47e6	1.53e6	1.01e6	1.07e6	inactive
65	eIF3m (GeneID 36565)	DRSC07142	1.19e6	1.26e6	8.03e5	9.11e5	inactive
66	CG4592 (GeneID 34317)	DRSC02761	1.50e6	1.67e6	1.39e6	1.26e6	inactive
67	CaBP1 (GeneID 34976)	DRSC01984	1.37e6	1.43e6	1.35e6	1.45e6	inactive
68	CG11226 (GeneID 40501)	DRSC11639	1.42e6	1.52e6	1.27e6	1.34e6	inactive
69	CG12883 (GeneID 43326)	DRSC14570	1.42e6	1.43e6	9.62e5	1.12e6	inactive
70	ewg (GeneID 30975)	DRSC18773	1.57e6	1.60e6	1.12e6	1.26e6	inactive
71	CG12075 (GeneID 31815)	DRSC17801	5.83e5		7.67e5		inactive
72	Cyp28d2 (GeneID 33748)	DRSC03299	1.66e6	1.54e6	1.25e6	1.35e6	inactive
73	CHES-1-like (GeneID 31678)	DRSC18447	1.73e6	1.66e6	1.12e6	1.21e6	inactive
74	Osi3 (GeneID 40757)	DRSC12175	1.59e6	1.55e6	1.35e6	1.46e6	inactive
75	CG8746 (GeneID 35867)	DRSC07257	1.67e6	1.73e6	1.40e6	1.59e6	inactive
